These are yes or no findings as the source states them, for the method shown. Binding can be weak; no strength is given.
Molecular target: HATPase-c domain of WP_011677872.1 (histidine protein kinase encoded by LBUL_RS00115) (Lactobacillus delbrueckii subsp. bulgaricus ATCC BAA-365) (UniProt H2E1G9)
Experiment: two-hybrid; S. cerevisiae Y2HGOLD co-transformed with pGBK-HPK0115 (bait) and pGAD-RR0110; growth on SD/-Trp-Leu-His plates with 0.1 mg/mL aureobasidin A (HIS3 and AUR1-C reporters)

WP_011677871.1 (response regulator encoded by LBUL_RS00110) (from UniProt H2E1H0)
binding: binds

Reference: paper PMC5516001
